Results are given in words; binding and its absence hold for the method and conditions named. Binding seen in cells or lysates may run through a third protein. Some results given as binding are weak or reduced against the parent protein; the word gives no strength.
Molecular target: T1, MT-JIP3 (JIP3 R578C), endogenous in patient cells (human (endogenous in patient fibroblasts and patient iPSC-derived neurons)) (UniProt Q9UPT6)
T1 sequence: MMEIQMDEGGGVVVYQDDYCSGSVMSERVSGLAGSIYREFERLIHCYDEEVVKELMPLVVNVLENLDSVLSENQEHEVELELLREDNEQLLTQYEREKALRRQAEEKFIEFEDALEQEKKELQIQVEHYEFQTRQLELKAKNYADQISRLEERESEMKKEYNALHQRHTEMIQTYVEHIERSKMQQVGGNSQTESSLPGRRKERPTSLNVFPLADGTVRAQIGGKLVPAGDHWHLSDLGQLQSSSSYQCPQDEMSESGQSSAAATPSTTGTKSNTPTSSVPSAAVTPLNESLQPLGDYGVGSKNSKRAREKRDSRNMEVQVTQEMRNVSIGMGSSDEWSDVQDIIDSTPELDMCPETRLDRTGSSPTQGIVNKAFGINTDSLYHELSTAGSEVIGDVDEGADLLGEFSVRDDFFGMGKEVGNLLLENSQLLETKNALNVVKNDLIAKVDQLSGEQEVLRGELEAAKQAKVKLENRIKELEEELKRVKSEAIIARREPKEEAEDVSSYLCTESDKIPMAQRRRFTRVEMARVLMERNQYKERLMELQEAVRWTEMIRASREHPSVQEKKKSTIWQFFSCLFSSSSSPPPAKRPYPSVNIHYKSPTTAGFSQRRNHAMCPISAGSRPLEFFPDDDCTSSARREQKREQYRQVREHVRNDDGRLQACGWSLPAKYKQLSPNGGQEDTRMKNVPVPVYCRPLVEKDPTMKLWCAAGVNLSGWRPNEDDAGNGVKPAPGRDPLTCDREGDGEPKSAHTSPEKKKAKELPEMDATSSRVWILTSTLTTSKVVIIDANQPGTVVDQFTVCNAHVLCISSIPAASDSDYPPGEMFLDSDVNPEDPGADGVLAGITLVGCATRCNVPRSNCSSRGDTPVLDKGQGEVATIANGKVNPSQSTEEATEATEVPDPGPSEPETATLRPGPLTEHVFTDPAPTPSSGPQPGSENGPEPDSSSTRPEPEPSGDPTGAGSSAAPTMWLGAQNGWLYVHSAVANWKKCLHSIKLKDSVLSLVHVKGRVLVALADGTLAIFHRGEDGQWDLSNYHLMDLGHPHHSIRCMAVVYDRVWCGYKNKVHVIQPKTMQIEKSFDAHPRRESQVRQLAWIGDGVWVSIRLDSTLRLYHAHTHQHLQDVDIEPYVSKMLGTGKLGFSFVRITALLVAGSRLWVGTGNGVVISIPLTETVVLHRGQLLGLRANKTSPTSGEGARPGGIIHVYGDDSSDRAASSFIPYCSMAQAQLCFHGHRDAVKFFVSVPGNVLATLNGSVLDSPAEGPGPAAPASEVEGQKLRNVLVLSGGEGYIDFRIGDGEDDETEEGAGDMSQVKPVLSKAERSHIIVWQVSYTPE
Test: co-IP; lysates of CRISPR control and patient iPSC-derived neurons (Supplemental Figure 3D); precipitating antibody not given

Chains of the proteins cited; added tags and fusions are not shown.
UniProt P33176: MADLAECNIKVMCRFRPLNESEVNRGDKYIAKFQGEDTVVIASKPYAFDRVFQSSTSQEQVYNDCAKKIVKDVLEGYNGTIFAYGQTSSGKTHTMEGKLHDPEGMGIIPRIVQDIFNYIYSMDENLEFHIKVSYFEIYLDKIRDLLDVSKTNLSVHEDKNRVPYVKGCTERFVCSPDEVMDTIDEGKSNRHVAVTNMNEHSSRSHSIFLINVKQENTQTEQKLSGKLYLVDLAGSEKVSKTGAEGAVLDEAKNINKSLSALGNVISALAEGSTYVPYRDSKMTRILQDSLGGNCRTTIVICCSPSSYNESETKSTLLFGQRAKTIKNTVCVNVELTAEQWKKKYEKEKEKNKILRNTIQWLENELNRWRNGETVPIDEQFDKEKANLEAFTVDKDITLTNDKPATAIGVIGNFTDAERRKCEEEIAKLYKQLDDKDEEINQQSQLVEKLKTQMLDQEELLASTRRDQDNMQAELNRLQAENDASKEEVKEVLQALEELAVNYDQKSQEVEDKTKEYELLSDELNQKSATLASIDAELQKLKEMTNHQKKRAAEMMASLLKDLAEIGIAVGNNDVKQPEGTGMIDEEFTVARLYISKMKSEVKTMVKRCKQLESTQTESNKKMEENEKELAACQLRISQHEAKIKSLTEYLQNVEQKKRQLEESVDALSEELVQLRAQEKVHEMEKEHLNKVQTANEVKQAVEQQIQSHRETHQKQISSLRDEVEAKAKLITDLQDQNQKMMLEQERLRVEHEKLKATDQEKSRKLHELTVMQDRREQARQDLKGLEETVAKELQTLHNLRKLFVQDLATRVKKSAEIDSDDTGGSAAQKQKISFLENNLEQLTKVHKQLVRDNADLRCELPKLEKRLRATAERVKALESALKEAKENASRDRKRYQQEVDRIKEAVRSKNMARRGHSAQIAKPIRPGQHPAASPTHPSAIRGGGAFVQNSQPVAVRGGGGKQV

- binding: binds
Substance: KIF5B (from UniProt P33176 1-963)

Reference: PMC12016931
